# According to PubChem BioAssay AID2685 (National Center for Advancing Translational Sciences (NCATS), 2010):
# The list shows a part of the results. Further columns of the screen follow, without active or inactive calls. Most of these compounds were active or inconclusive in the main read-out, so they are no random draw. Potencies come from curve fits of mixed quality, noted in brackets.
# Experiment: qHTS Assay for Lipid Storage Modulators in Drosophila S3 Cells;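 as to cell number change: cells counted by Cell Tracker Red CMTPX staining in the red channel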
# Conditions: BODIPY lipid droplet fluorescence, 18-24 h; for cell number change: measured here: cell count max response, cells fed with added oleic acid
# Method in brief: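 Drosophila S3 cells got compounds at several concentrations plus oleic acid (400 uM solution). Laser-scanning cytometry with 488 nm excitation read lipid droplets at 500-530 nm and cells at 575-640 nm. Percent activity was relative to 20 uM Triacsin C.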
# [1] = measured here: cell number channel AC50, cells fed with added oleic acid
# [2] = measured here: lipid fluorescence (Fed channel) AC50, cells fed with added oleic acid
SMILES,cell number change,AC50 [1],AC50 [2]
COc1ccc(C(C(=O)NC2CCCC2)N(CC2CCCO2)C(=O)Cn2nnc(-c3ccc(C)o3)n2)cc1 (stereo not drawn),-2.32%,"0.092 µM [rising, full curve, poor fit]",–
O=C(COc1ccccc1Cl)NCCCN1CCOCC1,-27.1%,–,"20.6 µM [falling, single point]"
Cc1c(C(=O)N2CCN(CCc3ccccn3)CC2)oc2ccc(Cl)cc12,40.9%,"0.092 µM [rising, full curve, poor fit]",–
Cc1cc(=O)oc2cc(NC(=O)Cc3ccccc3)ccc12,5.71%,–,–
COc1ccc(-c2csc(NC(=O)CSc3n[nH]c(N)n3)n2)cc1,33.6%,"7.31 µM [rising, single point]",–
COc1ccc(C(C)(C)C)cc1NC(=O)c1cccc(S(=O)(=O)N2CCN(C(C)=O)CC2)c1,11.5%,–,"0.116 µM [rising, full curve, poor fit]"
COCCCNC(=S)Nc1cccc(S(=O)(=O)NC2=NCCC2)c1,–,"0.461 µM [falling, single point]",–
CCOc1ccc(CN(C)CC(O)COC(c2ccc(OC)cc2)c2ccc(OC)cc2)cc1 (stereo not drawn),38.2%,"29.1 µM [rising, single point]","4.47 µM [falling, full curve, poor fit]"
CCNc1oc(-c2cccc3ccccc23)nc1C#N,-22%,–,"0.82 µM [falling, single point]"
NC(=S)c1cc2cc(Cl)ccc2oc1=O,10.9%,–,"0.651 µM [falling, single point]"
COc1ccc(NS(=O)(=O)c2csc(C(=O)N3CCCC3)c2)cc1,0.895%,–,–
CC(C)NC(=O)c1cccc(NC(=O)CC2SC(N3CCCCC3)=NC2=O)c1 (stereo not drawn),-19.3%,–,–
O=C(c1ccc(F)cc1)C1CCN(C(=S)Nc2ccc(F)cc2)CC1,-8.51%,–,"16.4 µM [falling, single point]"
Cc1cccc(C(C)n2nnc3ccccc32)c1O (stereo not drawn),11.8%,"0.291 µM [falling, single point]","32.6 µM [rising, partial curve, poor fit]"
O=C(NC(=S)N1CCN(Cc2ccccc2)CC1)c1ccccc1,36.9%,"16.4 µM [rising, single point]","29.1 µM [rising, single point]"
CCOc1ccc(S(=O)(=O)N(C)CC(=O)N2CCCC2)cc1,-16.6%,–,"0.0731 µM [falling, single point]"
CC(C)CCCNc1nc(N2CCOCC2)nc(N2CCOCC2)n1,18.7%,–,"5.8 µM [rising, full curve, poor fit]"

# Some of the entries above in a different format.
SMILES | cell number change | AC50 [1] | AC50 [2]
COc1ccc(-c2csc(NC(=O)CSc3n[nH]c(N)n3)n2)cc1 | 33.6% | 7.31 µM [rising, single point] | –
COc1ccc(C(C)(C)C)cc1NC(=O)c1cccc(S(=O)(=O)N2CCN(C(C)=O)CC2)c1 | 11.5% | – | 0.116 µM [rising, full curve, poor fit]
